Measurements reported in PubChem BioAssay AID1259254 (NCATS, 2017).
This is a random part of about 59,000 deposited reagents. About 1,550 of them (2.6%) were called active. 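G2 share is only a proxy for re-replication; each gene was hit by three separate siRNAs, and active genes were retested.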 Entries without a mark were called inactive. The numbers tell different reagents against one gene apart. Further read-outs or replicates are left out here. No sequences are given here. Not given: the amount of reagent.

Test: 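Gene knock-downs that lead to re-replication, shown by excess G2 DNA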 (primary screen)
Cell system: human HCT116 colorectal cancer cells
Reagent: single siRNA against human genes
Time to read-out: 3 days
Read-out: 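Imaged Hoechst DNA stain sorts each cell into a cycle phase by DNA amount; per plate, G2 fraction set to 0% for non-targeting and 100% for GMNN siRNA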
Direction: G2 robust z-score and G2 cells, % of GMNN control: higher = more G2 cells, more excess DNA replication
Hit rule: 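An siRNA counts as active if its G2 robust z-score lies at least 5 MADs above the screen median; here such calls match roughly 38% of GMNN control or more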

Against CPNE8 (copine 8) #1, the entry reads G2 robust z-score -0.561; G2 cells, % of GMNN control -0.979.
For CPNE8 (copine 8) #2, the values are G2 robust z-score 0.109; G2 cells, % of GMNN control 3.73.
Knock-down of CPNE8 (copine 8) #3 gave: G2 robust z-score -0.228; G2 cells, % of GMNN control 1.37.
Against TNFRSF8 (TNF receptor superfamily member 8) #1 the deposit lists G2 robust z-score -0.135; G2 cells, % of GMNN control 2.01.
Against TNFRSF8 (TNF receptor superfamily member 8) #2, the values are G2 robust z-score 1.12; G2 cells, % of GMNN control 10.8.
TNFRSF8 (TNF receptor superfamily member 8) #3 scored G2 robust z-score -0.809; G2 cells, % of GMNN control -2.72.
With knock-down of SELENON (selenoprotein N) #1, the screen gave G2 robust z-score 0.606; G2 cells, % of GMNN control 7.23.
SELENON (selenoprotein N) #2 gave G2 robust z-score -0.755; G2 cells, % of GMNN control -2.34.
With knock-down of SELENON (selenoprotein N) #3, the screen gave G2 robust z-score 0.742; G2 cells, % of GMNN control 8.19.
After knock-down of TSHZ3 (teashirt zinc finger homeobox 3) #1, the screen gave G2 robust z-score 0.102; G2 cells, % of GMNN control 3.69.
Silencing of TSHZ3 (teashirt zinc finger homeobox 3) #2 gave: G2 robust z-score 0.872; G2 cells, % of GMNN control 9.1.
TSHZ3 (teashirt zinc finger homeobox 3) #3 scored G2 robust z-score 1.14; G2 cells, % of GMNN control 11.
With knock-down of NPIPB3 (nuclear pore complex interacting protein family member B3) #1, the record shows G2 robust z-score 0.675; G2 cells, % of GMNN control 7.72.
With knock-down of NPIPB3 (nuclear pore complex interacting protein family member B3) #2 the results were G2 robust z-score 0.253; G2 cells, % of GMNN control 4.75.
For NPIPB3 (nuclear pore complex interacting protein family member B3) #3 the deposit lists G2 robust z-score -0.265; G2 cells, % of GMNN control 1.1.
SYNGR3 (synaptogyrin 3) #1 scored G2 robust z-score 0.456; G2 cells, % of GMNN control 6.17.
Against SYNGR3 (synaptogyrin 3) #2, the entry reads G2 robust z-score 0.0808; G2 cells, % of GMNN control 3.54.
Depletion of SYNGR3 (synaptogyrin 3) #3 resulted in: G2 robust z-score -0.0525; G2 cells, % of GMNN control 2.6.
